# Assay results from the supplement of paper PMC7666118.
# Chains of the proteins cited; added tags and fusions are not shown. Lines headed by an entry give the natural chain unless they say otherwise; changes in a name come on top.
# UniProt P11177, whole entry: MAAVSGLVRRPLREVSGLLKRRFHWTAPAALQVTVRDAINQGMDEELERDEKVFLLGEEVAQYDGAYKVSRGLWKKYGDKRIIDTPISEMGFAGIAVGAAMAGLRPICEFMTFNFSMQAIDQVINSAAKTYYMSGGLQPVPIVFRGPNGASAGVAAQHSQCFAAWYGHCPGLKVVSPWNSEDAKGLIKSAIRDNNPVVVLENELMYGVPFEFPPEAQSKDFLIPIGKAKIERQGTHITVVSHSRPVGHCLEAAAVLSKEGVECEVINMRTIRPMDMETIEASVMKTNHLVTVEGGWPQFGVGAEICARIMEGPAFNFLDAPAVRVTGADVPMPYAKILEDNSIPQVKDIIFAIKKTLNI
# UniProt Q8NFH3: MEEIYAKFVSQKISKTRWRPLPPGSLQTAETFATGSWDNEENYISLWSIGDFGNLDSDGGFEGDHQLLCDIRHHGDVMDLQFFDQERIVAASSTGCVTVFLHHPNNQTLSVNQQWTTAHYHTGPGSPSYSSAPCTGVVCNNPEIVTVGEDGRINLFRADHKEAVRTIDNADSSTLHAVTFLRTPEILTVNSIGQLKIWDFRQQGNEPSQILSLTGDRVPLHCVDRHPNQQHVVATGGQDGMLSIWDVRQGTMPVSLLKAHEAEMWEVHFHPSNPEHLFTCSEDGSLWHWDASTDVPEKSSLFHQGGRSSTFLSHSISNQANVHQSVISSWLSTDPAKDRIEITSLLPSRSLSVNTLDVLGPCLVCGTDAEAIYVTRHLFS
# UniProt Q9H074: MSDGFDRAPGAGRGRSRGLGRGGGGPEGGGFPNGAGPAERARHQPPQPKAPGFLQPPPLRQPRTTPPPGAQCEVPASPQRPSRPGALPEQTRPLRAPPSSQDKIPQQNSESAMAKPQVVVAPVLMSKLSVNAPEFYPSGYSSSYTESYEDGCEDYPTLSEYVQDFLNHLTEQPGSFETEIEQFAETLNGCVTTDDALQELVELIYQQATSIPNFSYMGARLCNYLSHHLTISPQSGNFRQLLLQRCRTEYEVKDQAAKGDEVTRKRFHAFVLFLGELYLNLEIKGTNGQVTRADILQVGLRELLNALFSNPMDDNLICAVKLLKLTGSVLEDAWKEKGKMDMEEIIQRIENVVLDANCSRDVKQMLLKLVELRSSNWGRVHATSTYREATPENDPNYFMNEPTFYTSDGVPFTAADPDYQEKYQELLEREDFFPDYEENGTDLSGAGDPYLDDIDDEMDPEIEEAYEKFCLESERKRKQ
# UniProt O00330, whole entry: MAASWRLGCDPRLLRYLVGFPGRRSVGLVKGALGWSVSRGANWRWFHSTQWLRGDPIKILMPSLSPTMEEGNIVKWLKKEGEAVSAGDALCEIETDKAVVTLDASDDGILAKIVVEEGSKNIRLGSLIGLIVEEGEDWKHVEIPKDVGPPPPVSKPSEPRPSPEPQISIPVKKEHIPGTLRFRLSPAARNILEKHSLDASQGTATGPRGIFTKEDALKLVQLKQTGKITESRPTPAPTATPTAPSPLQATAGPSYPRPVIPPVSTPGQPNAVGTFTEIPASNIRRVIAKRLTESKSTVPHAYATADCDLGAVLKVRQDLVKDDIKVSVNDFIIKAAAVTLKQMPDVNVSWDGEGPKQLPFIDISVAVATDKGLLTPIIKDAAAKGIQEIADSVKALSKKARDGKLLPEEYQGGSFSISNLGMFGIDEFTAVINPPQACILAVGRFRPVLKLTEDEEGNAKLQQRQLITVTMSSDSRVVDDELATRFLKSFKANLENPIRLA
# UniProt P22061: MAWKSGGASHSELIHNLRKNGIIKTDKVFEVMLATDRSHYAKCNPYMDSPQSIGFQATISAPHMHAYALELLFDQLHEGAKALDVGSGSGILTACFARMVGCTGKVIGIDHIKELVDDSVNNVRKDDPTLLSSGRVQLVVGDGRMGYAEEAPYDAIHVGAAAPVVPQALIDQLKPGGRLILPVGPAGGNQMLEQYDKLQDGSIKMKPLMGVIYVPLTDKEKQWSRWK
# UniProt Q9UNF0: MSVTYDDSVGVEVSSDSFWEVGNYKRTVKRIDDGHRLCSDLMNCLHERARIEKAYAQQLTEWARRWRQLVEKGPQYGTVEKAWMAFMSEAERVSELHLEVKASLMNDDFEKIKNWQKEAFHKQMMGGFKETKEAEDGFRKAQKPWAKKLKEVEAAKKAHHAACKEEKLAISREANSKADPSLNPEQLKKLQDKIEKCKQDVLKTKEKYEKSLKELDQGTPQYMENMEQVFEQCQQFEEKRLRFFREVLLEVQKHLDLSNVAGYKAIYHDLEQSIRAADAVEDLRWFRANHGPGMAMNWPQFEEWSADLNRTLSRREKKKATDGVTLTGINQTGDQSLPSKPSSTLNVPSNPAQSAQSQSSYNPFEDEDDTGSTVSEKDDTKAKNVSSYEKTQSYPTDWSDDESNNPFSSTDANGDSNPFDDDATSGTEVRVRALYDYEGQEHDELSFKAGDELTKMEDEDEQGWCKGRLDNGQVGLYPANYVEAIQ
# UniProt O00628: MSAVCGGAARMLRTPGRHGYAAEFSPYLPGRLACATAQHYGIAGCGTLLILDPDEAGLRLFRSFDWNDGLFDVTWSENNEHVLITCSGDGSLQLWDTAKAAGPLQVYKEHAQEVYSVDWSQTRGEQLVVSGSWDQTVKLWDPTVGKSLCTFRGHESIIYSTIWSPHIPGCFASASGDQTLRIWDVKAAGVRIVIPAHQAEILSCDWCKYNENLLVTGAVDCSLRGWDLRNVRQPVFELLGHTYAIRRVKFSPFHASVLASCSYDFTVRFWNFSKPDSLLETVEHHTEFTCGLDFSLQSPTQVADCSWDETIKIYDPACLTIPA
# UniProt P55809: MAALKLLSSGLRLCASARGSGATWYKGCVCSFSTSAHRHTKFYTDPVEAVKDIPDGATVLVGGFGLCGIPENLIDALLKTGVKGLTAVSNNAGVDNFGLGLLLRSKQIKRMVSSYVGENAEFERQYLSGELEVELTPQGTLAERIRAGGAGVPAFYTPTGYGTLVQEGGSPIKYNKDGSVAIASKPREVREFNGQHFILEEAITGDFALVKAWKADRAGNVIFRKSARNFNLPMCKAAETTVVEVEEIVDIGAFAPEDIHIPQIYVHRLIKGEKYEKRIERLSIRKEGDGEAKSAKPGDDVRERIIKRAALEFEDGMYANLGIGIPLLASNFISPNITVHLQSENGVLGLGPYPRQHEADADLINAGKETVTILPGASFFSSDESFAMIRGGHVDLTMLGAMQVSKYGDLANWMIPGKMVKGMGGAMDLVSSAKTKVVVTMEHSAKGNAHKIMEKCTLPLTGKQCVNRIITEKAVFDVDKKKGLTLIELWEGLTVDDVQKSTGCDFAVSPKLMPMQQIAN
# UniProt O75879: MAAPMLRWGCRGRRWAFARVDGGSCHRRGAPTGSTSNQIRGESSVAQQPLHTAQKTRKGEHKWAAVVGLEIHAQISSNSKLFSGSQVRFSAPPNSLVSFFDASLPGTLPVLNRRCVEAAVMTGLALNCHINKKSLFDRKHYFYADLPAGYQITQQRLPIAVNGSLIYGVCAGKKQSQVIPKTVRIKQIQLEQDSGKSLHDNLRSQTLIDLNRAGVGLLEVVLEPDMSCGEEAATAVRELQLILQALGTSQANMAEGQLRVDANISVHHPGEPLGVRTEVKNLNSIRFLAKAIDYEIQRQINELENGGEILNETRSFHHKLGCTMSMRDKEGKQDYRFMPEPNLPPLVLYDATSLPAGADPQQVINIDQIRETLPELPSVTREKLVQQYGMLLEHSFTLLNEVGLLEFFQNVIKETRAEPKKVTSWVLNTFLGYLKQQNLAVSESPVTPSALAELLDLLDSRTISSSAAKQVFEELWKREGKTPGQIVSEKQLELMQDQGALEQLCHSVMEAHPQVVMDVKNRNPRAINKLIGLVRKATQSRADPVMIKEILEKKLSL
# UniProt Q9UBU9: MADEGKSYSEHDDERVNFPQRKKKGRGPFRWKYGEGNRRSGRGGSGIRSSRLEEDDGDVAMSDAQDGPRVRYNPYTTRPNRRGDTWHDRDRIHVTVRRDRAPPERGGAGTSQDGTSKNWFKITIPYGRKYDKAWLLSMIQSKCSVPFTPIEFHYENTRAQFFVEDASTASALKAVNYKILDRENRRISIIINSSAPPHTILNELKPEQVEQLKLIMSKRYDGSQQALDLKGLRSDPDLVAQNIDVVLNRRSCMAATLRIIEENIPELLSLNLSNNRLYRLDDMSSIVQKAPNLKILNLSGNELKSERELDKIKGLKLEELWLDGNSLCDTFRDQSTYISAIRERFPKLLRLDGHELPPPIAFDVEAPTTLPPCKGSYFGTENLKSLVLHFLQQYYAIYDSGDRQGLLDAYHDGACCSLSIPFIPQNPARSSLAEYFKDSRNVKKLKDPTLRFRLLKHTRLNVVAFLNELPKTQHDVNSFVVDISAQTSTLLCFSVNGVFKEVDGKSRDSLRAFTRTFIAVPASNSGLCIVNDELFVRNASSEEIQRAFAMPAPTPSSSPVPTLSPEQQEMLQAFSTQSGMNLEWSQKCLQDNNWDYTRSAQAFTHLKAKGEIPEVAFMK
# UniProt Q8WW12: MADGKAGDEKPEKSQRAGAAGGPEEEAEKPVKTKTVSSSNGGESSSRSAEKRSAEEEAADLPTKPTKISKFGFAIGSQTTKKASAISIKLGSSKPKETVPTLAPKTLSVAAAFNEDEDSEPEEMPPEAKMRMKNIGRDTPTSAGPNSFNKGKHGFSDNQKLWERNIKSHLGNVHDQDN
# UniProt Q9H4B0: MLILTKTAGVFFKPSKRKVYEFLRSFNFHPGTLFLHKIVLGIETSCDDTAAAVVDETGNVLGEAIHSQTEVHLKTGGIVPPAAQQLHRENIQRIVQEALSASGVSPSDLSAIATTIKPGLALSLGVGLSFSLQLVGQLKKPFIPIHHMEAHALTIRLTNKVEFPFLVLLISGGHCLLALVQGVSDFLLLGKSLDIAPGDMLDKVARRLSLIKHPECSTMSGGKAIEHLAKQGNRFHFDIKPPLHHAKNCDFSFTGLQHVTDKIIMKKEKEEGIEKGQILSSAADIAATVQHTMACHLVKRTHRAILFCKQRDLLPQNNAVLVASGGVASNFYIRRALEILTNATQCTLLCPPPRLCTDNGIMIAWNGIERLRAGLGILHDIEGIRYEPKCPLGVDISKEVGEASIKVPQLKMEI
# UniProt O43252: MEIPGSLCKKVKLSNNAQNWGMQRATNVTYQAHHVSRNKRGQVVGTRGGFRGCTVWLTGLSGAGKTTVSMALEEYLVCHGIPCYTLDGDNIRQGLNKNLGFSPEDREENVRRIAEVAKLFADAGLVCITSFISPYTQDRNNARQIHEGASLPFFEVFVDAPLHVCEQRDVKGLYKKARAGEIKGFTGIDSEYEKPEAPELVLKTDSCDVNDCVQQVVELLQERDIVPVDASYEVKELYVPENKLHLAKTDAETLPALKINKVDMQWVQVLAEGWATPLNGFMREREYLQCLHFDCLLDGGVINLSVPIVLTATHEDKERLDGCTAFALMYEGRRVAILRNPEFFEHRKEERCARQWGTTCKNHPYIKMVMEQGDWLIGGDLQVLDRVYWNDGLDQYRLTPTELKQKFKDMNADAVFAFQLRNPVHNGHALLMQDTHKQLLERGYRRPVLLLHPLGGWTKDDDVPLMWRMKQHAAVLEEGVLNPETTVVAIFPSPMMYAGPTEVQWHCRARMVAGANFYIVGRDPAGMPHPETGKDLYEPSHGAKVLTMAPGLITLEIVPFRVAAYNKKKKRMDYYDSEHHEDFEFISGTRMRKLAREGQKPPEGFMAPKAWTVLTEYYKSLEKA
# UniProt Q8NFH4: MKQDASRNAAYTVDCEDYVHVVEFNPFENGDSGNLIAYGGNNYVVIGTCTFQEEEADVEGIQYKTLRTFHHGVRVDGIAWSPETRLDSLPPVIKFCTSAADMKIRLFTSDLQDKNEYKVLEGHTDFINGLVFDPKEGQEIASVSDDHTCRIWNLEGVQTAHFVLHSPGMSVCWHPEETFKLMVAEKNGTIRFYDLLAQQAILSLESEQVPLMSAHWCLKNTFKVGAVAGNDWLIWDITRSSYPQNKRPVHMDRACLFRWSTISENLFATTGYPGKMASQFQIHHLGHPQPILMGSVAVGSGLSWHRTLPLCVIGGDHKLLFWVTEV
# UniProt Q9NV79: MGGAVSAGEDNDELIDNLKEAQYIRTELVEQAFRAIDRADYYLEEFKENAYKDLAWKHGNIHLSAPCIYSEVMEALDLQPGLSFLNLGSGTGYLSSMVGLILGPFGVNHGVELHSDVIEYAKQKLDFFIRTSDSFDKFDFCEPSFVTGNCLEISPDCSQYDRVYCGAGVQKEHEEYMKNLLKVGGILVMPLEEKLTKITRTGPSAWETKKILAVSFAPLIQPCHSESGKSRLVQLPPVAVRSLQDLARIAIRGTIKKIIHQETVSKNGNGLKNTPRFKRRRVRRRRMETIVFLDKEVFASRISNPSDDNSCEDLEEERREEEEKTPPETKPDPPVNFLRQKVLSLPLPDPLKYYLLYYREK
# UniProt Q8WV74: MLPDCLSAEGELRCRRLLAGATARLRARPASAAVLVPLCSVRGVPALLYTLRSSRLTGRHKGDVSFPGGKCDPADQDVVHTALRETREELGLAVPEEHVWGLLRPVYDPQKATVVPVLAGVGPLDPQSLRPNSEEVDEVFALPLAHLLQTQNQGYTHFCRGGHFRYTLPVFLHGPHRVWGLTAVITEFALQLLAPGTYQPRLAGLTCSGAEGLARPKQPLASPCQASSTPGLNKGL
# Some of the results follow.
# Compound: COc1ccc(Cn2ccc3ccc(C(=O)NO)cc32)cc1
# Assay: dose-dependent thermal stabilisation call (2D-TPP, DLPTP, 10% FDR) (binary (1 = stabilised)); higher = stabilised by the compound
# Conditions: system: HL-60 intact cells; concentration range 0.04-10 µM
row,Target,dose-dependent thermal stabilisation call
1,NUP214 (UniProt P35658),inactive: 0
2,PCNA (UniProt P12004),active: 1
3,PDHB (UniProt P11177),inactive: 0
4,NUDC (UniProt Q9Y266),inactive: 0
5,NUP43 (UniProt Q8NFH3),inactive: 0
6,NUP98 (UniProt P52948),inactive: 0
7,NUDCD3 (UniProt Q8IVD9),inactive: 0
8,NT5C1B (UniProt Q96P26),inactive: 0
9,PDCD6IP (UniProt Q8WUM4),inactive: 0
10,NT5C2 (UniProt P49902),inactive: 0
11,PAF1 (UniProt Q8N7H5),inactive: 0
12,PAIP1 (UniProt Q9H074),inactive: 0
13,NSMCE4A (UniProt Q9NXX6),inactive: 0
14,NUDT5 (UniProt Q9UKK9),inactive: 0
15,PARP14 (UniProt Q460N5),inactive: 0
16,PDHX (UniProt O00330),inactive: 0
17,PCMT1 (UniProt P22061),active: 1
18,PACSIN2 (UniProt Q9UNF0),inactive: 0
19,NSMCE2 (UniProt Q96MF7),inactive: 0

# Part of the list above in another layout:
row	Target	dose-dependent thermal stabilisation call
3	PDHB (UniProt P11177)	inactive: 0
15	PARP14 (UniProt Q460N5)	inactive: 0

# Remaining list, next part

row,Target,dose-dependent thermal stabilisation call
1,NUP155 (UniProt O75694),inactive: 0
2,PEX7 (UniProt O00628),inactive: 0
3,OXCT1 (UniProt P55809),inactive: 0
4,PET112L (UniProt O75879),inactive: 0
5,NUFIP1 (UniProt Q9UHK0),inactive: 0
6,NXF1 (UniProt Q9UBU9),inactive: 0
7,PABPC1 (UniProt P11940),inactive: 0
8,PEX1 (UniProt O43933),inactive: 0
9,PBK (UniProt Q96KB5),inactive: 0
10,NRM (UniProt Q8IXM6),inactive: 0
11,PDE5A (UniProt O76074),inactive: 0
12,PCNP (UniProt Q8WW12),inactive: 0
13,OSGEPL1 (UniProt Q9H4B0),inactive: 0
14,PAPSS1 (UniProt O43252),inactive: 0
15,NUP37 (UniProt Q8NFH4),active: 1
16,PCMTD2 (UniProt Q9NV79),inactive: 0
17,NR2F2 (UniProt P24468),inactive: 0
18,NUDT8 (UniProt Q8WV74),inactive: 0
